Assay results as given in the supplement of paper PMC10849652.
The other results are listed elsewhere or left out.

Protein sequences, listed by entry. Tags and fused reporters are not part of them. Lines headed by an entry give the natural chain unless they say otherwise; changes in a name come on top.
UniProt P18846: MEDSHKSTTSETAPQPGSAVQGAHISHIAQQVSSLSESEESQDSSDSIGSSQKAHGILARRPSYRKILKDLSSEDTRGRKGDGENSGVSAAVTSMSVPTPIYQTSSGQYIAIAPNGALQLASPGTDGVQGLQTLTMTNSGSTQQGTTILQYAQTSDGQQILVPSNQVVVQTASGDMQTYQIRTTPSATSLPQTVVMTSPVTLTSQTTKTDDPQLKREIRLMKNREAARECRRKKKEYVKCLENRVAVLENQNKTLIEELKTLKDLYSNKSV
UniProt P54252: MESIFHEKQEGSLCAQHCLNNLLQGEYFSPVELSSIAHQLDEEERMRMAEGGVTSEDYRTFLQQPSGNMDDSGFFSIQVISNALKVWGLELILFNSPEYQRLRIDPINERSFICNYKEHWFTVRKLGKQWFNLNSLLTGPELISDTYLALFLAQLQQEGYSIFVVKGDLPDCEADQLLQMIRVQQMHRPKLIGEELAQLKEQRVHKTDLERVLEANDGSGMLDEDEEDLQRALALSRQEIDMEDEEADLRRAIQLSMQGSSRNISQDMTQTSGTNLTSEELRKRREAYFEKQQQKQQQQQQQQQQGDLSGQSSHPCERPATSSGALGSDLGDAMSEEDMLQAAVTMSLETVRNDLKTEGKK
UniProt P61421, whole entry, looked up: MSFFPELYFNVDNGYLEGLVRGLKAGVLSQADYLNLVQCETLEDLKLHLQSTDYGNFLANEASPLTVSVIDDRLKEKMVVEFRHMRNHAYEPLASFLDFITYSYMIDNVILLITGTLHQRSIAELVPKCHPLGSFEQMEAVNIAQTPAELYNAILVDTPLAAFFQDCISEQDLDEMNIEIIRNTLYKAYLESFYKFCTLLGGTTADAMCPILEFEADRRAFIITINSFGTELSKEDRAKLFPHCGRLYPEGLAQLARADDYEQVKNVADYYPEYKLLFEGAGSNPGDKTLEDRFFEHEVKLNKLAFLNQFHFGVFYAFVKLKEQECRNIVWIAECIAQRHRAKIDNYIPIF
UniProt Q9NVP2, whole entry, looked up: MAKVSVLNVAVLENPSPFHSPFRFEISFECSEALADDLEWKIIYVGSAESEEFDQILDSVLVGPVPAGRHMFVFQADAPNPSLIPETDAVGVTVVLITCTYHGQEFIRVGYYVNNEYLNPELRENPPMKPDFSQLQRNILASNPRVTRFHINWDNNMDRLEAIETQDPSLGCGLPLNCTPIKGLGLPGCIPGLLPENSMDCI
UniProt Q5TC12: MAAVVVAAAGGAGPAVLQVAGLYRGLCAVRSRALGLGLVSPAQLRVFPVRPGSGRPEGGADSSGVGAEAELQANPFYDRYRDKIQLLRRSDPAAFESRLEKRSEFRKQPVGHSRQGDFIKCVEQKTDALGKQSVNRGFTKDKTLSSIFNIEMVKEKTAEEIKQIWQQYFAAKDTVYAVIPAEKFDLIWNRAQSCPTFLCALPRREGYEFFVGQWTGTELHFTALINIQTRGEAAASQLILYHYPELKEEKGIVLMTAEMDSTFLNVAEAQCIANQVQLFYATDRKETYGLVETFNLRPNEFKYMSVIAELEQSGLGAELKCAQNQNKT
UniProt Q8WYN0: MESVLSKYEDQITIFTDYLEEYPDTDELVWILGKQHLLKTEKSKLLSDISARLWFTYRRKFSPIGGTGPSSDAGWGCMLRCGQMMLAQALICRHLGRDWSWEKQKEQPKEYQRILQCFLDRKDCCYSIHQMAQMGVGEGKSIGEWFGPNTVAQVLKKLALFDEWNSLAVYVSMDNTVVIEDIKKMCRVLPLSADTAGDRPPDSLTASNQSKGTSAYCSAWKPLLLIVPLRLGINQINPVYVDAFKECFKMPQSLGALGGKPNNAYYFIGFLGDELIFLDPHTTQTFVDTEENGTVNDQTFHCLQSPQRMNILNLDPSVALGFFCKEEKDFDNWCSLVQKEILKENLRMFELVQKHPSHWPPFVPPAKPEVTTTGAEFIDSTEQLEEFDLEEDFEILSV
UniProt L0R819, whole entry, looked up: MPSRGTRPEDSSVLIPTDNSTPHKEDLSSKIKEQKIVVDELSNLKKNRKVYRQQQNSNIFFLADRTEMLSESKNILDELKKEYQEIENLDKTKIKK
UniProt P21281, whole entry, looked up: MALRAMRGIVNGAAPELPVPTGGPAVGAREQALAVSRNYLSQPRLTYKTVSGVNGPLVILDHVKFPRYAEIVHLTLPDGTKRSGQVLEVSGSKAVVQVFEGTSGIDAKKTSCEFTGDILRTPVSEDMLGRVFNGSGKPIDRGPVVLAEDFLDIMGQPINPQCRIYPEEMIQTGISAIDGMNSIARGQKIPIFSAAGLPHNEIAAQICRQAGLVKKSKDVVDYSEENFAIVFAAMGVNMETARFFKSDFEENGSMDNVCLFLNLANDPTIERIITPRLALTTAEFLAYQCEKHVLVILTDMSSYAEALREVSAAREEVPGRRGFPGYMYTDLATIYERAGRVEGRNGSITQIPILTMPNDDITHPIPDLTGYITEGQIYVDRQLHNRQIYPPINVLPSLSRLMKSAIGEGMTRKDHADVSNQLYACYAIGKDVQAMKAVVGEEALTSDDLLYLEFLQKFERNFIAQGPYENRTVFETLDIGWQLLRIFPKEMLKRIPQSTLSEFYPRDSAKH
UniProt O75964: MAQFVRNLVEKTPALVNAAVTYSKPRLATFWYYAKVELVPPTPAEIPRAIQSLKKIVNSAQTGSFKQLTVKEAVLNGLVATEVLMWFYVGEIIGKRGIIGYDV
UniProt P36542: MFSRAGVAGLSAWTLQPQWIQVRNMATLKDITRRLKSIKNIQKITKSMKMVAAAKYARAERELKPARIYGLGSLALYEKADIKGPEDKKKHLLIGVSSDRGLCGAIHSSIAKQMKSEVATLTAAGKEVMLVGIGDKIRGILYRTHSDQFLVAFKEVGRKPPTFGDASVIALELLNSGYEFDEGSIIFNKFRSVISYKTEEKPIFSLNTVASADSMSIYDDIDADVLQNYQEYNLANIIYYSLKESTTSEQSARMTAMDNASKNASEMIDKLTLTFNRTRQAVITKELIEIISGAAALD
UniProt Q96DT6: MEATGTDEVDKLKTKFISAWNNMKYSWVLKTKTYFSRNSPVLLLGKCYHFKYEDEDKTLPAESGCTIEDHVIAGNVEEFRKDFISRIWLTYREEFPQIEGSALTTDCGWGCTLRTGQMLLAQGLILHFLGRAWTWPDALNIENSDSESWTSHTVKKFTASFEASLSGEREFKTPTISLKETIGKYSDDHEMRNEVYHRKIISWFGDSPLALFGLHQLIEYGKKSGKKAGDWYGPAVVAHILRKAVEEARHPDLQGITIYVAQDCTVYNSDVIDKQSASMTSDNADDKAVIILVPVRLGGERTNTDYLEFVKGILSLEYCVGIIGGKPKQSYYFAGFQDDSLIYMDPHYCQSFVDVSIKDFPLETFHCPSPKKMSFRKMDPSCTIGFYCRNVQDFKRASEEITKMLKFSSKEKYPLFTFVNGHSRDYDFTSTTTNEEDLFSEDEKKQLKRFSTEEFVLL
UniProt Q9NWX5: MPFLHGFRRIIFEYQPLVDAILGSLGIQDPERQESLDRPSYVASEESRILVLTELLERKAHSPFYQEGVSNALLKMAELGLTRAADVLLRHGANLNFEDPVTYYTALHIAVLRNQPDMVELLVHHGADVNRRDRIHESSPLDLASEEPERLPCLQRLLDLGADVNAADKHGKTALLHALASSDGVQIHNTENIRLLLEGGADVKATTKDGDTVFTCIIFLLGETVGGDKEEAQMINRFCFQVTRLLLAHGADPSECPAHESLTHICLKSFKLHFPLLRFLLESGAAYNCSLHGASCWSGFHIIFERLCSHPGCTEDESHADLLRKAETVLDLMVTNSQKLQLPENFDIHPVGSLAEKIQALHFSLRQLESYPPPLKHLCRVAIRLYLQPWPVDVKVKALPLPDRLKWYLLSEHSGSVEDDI
UniProt Q8NHH9: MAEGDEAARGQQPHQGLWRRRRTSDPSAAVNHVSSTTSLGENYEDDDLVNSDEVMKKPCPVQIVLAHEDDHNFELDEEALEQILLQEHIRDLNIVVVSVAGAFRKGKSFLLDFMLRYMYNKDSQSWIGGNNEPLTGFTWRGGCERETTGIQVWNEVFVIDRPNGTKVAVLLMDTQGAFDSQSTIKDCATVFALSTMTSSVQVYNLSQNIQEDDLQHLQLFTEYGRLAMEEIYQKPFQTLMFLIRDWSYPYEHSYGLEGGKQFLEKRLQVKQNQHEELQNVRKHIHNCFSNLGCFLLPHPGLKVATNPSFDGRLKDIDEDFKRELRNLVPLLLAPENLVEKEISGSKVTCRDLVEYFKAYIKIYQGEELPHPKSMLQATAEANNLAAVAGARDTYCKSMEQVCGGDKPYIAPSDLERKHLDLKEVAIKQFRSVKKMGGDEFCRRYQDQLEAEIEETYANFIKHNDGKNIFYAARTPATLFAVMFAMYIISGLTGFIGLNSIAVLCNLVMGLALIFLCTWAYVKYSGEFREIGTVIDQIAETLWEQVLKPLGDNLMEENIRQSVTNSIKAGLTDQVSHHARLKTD
UniProt Q9NY97: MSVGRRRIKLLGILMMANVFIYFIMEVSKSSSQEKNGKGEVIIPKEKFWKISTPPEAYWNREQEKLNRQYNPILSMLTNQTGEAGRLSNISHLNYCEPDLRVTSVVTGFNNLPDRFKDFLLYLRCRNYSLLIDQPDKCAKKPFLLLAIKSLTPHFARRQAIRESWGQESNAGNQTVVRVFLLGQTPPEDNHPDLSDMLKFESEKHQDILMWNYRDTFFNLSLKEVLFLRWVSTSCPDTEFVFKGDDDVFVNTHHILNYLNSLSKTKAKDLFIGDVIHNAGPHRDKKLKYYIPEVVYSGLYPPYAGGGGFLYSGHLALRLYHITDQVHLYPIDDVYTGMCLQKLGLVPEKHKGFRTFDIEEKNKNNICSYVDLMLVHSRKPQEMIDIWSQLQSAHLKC

Key:
Assay in all cases: log2 fold change, soluble protein after heating vs DMSO (PISA); higher = thermal stabilisation; K562 lysate, 10 uM; active = over 0.2 and 3.5 SD of the protein, either way, in both replicates (recomputed)
[1] = compound: CS(=O)(=O)CCNCc1ccc(-c2ccc3ncnc(Nc4ccc(OCc5cccc(F)c5)c(Cl)c4)c3c2)o1 [lapatinib]
In short: (§1)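 K562 pellets were dounce-homogenised in PBS pH 7.4 with 1 mM MgCl2, and the crude extract at 1 mg/mL protein was treated with 10 μM compound for 30 min. Aliquots were heated for 3 min across 48°C-58°C, pooled, and brought to 0.5% NP-40 at 4°C; soluble protein was the supernatant after 21,000xg for 90 min. Soluble protein was quantified by TMTpro 16plex LC-MS/MS with channel sums equalised, and reported as log2 fold change in thermal stability against DMSO controls, with values from duplicates.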

[2] = compound: CS(=O)(=O)N1CCN(Cc2cc3nc(-c4cccc5[nH]ncc45)nc(N4CCOCC4)c3s2)CC1 [pictilisib]
In short: as §1

[3] = compound: C[C@@H](Oc1cc(-c2cnn(C3CCNCC3)c2)cnc1N)c1c(Cl)ccc(F)c1Cl [crizotinib]
In short: as §1

[4] = compound: C[C@H](C1=CC=C(C=C1)C(=O)NC2=C3C=CNC3=NC=C2)N
In short: as §1

[5] = compound: C[C@H](Nc1ncnc2nc[nH]c12)c1cc2cccc(Cl)c2c(=O)n1-c1ccccc1 [duvelisib]
In short: as §1

[6] = compound: Cc1cc(Nc2cc(CN3CCOCC3)c3nc(C)c(Cc4ccc(Cl)cc4F)n3n2)n[nH]1 [gandotinib]
In short: as §1

[7] = compound: Cc1cc(Nc2cc(N3CCN(C)CC3)nc(Sc3ccc(NC(=O)C4CC4)cc3)n2)n[nH]1 [tozasertib]
In short: as §1

[8] = compound: Cc1ccc(-n2nc(C(C)(C)C)cc2NC(=O)Nc2ccc(OCCN3CCOCC3)c3ccccc23)cc1 [doramapimod]
In short: as §1

[9] = compound: Cc1ccc(NC(=O)c2ccc(CN3CC[C@H](N(C)C)C3)c(C(F)(F)F)c2)cc1Nc1nccc(-c2cncnc2)n1 [bafetinib]
In short: as §1

[10] = compound: Cc1cccc(CC(=O)N2CCc3c2ccc(-c2cn(C)c4ncnc(N)c24)c3F)n1
In short: as §1

[11] = compound: Cc1cn(-c2cc(NC(=O)c3ccc(C)c(Nc4nccc(-c5cccnc5)n4)c3)cc(C(F)(F)F)c2)cn1 [nilotinib]
In short: as §1

[12] = compound: Cc1nc(Nc2n[nH]c3c2CN(C(=O)N[C@H](CN(C)C)c2ccccc2)C3(C)C)c2sccc2n1
In short: as §1

[13] = compound: Cc1nc(Nc2ncc(C(=O)Nc3c(C)cccc3Cl)s2)cc(N2CCN(CCO)CC2)n1 [dasatinib]
In short: as §1

[14] = compound: Cc1ncc(-c2ccnc(Nc3ccc(S(C)(=O)=O)cc3)n2)n1C(C)C
In short: as §1

[15] = compound: Cn1cc(-c2ccc3c(c2)CCN3C(=O)Cc2cccc(C(F)(F)F)c2)c2c(N)ncnc21
In short: as §1

[16] = compound: Cn1cc(CNCC2CCN(c3ncc(C(=O)NO)cn3)CC2)c2ccccc21 [quisinostat]
In short: as §1

[17] = compound: Cn1cncc1[C@@](N)(c1ccc(Cl)cc1)c1ccc2c(c1)c(-c1cccc(Cl)c1)cc(=O)n2C [tipifarnib]
In short: as §1

[18] = compound: NC(=O)Nc1cc(-c2cccc(F)c2)sc1C(=O)N[C@H]1CCCNC1
In short: as §1

[19] = compound: NC(=O)c1cnc(N[C@@H]2CCCC[C@@H]2N)nc1Nc1cccc(-n2nccn2)c1
In short: as §1

[20] = compound: NC1(c2ccc(-c3nc4ccn5c(=O)[nH]nc5c4cc3-c3ccccc3)cc2)CCC1
In short: as §1

Measured: log2 fold change

ATF1 (UniProt P18846)
inactive: [1] 0.078 | [2] 0.013 | [3] 0.008 | [4] 0.042 | [5] 0.025 | [6] 0.012 | [7] -0.11 | [8] 0.044 | [9] -0.022 | [10] 0.055 | [11] -0.024 | [12] 0.058 | [13] 0.007 | [14] 0.072 | [15] -0.048 | [16] -0.042 | [17] -0.082 | [18] -0.013 | [19] 0.032 | [20] -0.06

ATXN3 isoform 1 (UniProt P54252)
inactive: [1] -0.009 | [2] -0.047 | [3] -0.005 | [4] 0.038 | [5] -0.003 | [6] -0.03 | [7] 0.081 | [8] 0.033 | [9] -0.006 | [10] -0.031 | [11] -0.006 | [12] -0.015 | [13] -0.022 | [14] 0.009 | [15] 0.006 | [16] -0.039 | [17] 0.064 | [18] 0.007 | [19] -0.019 | [20] -0.041

ATP6V0D1 (UniProt P61421)
inactive: [1] 0.047 | [2] 0.042 | [3] 0.036 | [4] 0.061 | [5] 0.031 | [6] -0.029 | [7] 0.042 | [8] 0.016 | [9] 0.043 | [10] 0.027 | [11] 0.05 | [12] -0.027 | [13] -0.016 | [14] 0.08 | [15] 0.017 | [16] 0.05 | [17] 0.002 | [18] -0.033 | [19] -0.037 | [20] 0.011

ASF1B (UniProt Q9NVP2)
inactive: [1] -0.025 | [2] -0.034 | [3] -0.028 | [4] 0.047 | [5] -0.014 | [6] 0.063 | [7] -0.035 | [8] -0.004 | [9] 0.063 | [10] -0.006 | [11] -0.021 | [12] -0.045 | [13] -0.015 | [14] 0.028 | [15] -0.043 | [16] -0.122 | [17] -0.053 | [18] 0.106 | [19] 0.045 | [20] 0.002

ATP5MF-PTCD1 (UniProt G3V325)
inactive: [1] -0.025 | [2] 0.004 | [3] 0.016 | [4] -0.032 | [5] 0.042 | [6] 0.022 | [7] 0.007 | [8] -0.019 | [9] -0.023 | [10] 0.024 | [11] 0.03 | [12] -0.043 | [13] 0.051 | [14] 0.007 | [15] 0.031 | [16] -0.003 | [17] -0.026 | [18] 0.013 | [19] -0.042 | [20] 0.037

ATPAF1 (UniProt Q5TC12)
inactive: [1] 0.004 | [2] -0.027 | [3] -0.024 | [4] 0.15 | [5] 0.03 | [6] -0.061 | [7] 0.024 | [8] 0.047 | [9] -0.082 | [10] -0.05 | [11] 0.04 | [12] -0.015 | [13] -0.017 | [14] -0.036 | [15] -0.054 | [16] -0.042 | [17] -0.017 | [18] 0.001 | [19] 0.017 | [20] 0.006

ATG4A (UniProt Q8WYN0)
inactive: [1] -0.017 | [2] -0.02 | [3] -0.033 | [4] -0.061 | [5] -0.009 | [6] -0.025 | [7] 0.044 | [8] 0.008 | [9] -0.014 | [10] 0.063 | [11] -0.022 | [12] 0.018 | [13] -0.064 | [14] 0.037 | [15] -0.038 | [16] -0.042 | [17] -0.015 | [18] 0.096 | [19] -0.02 | [20] 0

ASDURF (UniProt L0R819)
inactive: [1] -0.035 | [2] 0.061 | [3] 0.065 | [4] 0.016 | [5] 0.015 | [6] 0.025 | [7] -0.044 | [8] -0.005 | [9] -0.011 | [10] -0.008 | [11] -0.038 | [12] 0.041 | [13] 0.003 | [14] 0.017 | [15] -0.029 | [16] 0.011 | [17] 0.005 | [18] 0.022 | [19] 0.018 | [20] -0.025

Pulled one by one from above, two records:
ATF1 (UniProt P18846)
inactive: [1] 0.078 | [2] 0.013 | [3] 0.008 | [4] 0.042 | [5] 0.025 | [6] 0.012 | [7] -0.11 | [8] 0.044 | [9] -0.022 | [10] 0.055 | [11] -0.024 | [12] 0.058 | [13] 0.007 | [14] 0.072 | [15] -0.048 | [16] -0.042 | [17] -0.082 | [18] -0.013 | [19] 0.032 | [20] -0.06

ATP6V0D1 (UniProt P61421)
inactive: [1] 0.047 | [2] 0.042 | [3] 0.036 | [4] 0.061 | [5] 0.031 | [6] -0.029 | [7] 0.042 | [8] 0.016 | [9] 0.043 | [10] 0.027 | [11] 0.05 | [12] -0.027 | [13] -0.016 | [14] 0.08 | [15] 0.017 | [16] 0.05 | [17] 0.002 | [18] -0.033 | [19] -0.037 | [20] 0.011

Later entries.

ATP6V1B2 (UniProt P21281)
inactive: [1] 0.012 | [2] 0.01 | [3] 0.001 | [4] -0.066 | [5] 0.049 | [6] 0.068 | [7] -0.009 | [8] -0.017 | [9] 0.012 | [10] 0.045 | [11] 0.005 | [12] -0.001 | [13] 0.013 | [14] -0.013 | [15] 0.007 | [16] 0.024 | [17] 0 | [18] 0.006 | [19] -0.011 | [20] -0.01

ATP5MG (UniProt O75964)
inactive: [1] -0.017 | [2] 0.008 | [3] -0.009 | [4] -0.073 | [5] 0.013 | [6] -0.014 | [7] 0 | [8] 0.004 | [9] -0.046 | [10] 0 | [11] 0.038 | [12] 0.009 | [13] -0.034 | [14] 0.029 | [15] -0.003 | [16] -0.013 | [17] 0.003 | [18] -0.012 | [19] -0.051 | [20] 0.023

ATP5F1C (UniProt P36542)
inactive: [1] -0.004 | [2] 0.016 | [3] 0.032 | [4] 0.01 | [5] 0.007 | [6] 0.007 | [7] 0.025 | [8] 0.003 | [9] 0.038 | [10] -0.002 | [11] -0.013 | [12] 0.012 | [13] 0.034 | [14] -0.005 | [15] 0.009 | [16] -0.01 | [17] 0.005 | [18] 0.013 | [19] -0.001 | [20] -0.008

ATG4C (UniProt Q96DT6)
inactive: [1] 0 | [2] -0.029 | [3] 0.017 | [4] 0.022 | [5] 0.026 | [6] 0.015 | [7] 0.001 | [8] 0.014 | [9] 0.05 | [10] 0.023 | [11] -0.03 | [12] 0.079 | [13] 0.033 | [14] -0.026 | [15] 0.011 | [16] 0 | [17] -0.016 | [18] 0.01 | [19] 0.025 | [20] -0.007

ASB6 (UniProt Q9NWX5)
inactive: [1] -0.04 | [2] -0.029 | [3] 0.01 | [4] 0.093 | [5] 0.008 | [6] -0.065 | [7] -0.159 | [8] 0.004 | [9] -0.055 | [10] -0.028 | [11] -0.024 | [12] 0.01 | [13] 0.01 | [14] 0.029 | [15] -0.025 | [16] -0.002 | [17] 0.041 | [18] -0.01 | [19] 0.016 | [20] 0.08

ATL2 (UniProt Q8NHH9)
inactive: [1] -0.022 | [2] -0.022 | [3] -0.018 | [4] -0.159 | [5] 0.062 | [6] -0.031 | [7] -0.002 | [8] -0.019 | [9] 0.026 | [10] 0.085 | [11] 0.04 | [12] 0.032 | [13] -0.034 | [14] -0.047 | [15] -0.004 | [16] 0.084 | [17] -0.018 | [18] -0.039 | [19] 0 | [20] 0.042

AURKAIP1 (UniProt Q9NWT8)
inactive: [1] -0.001 | [2] 0.051 | [3] 0.021 | [4] -0.017 | [5] 0.012 | [6] -0.03 | [7] 0.028 | [8] -0.039 | [9] -0.029 | [10] -0.04 | [11] -0.072 | [12] -0.019 | [13] 0 | [14] 0 | [15] -0.058 | [16] -0.02 | [17] -0.041 | [18] 0.055 | [19] 0.042 | [20] -0.071

B3GNT2 (UniProt Q9NY97)
inactive: [1] 0.036 | [2] -0.009 | [3] 0.005 | [4] -0.003 | [5] -0.009 | [6] 0.016 | [7] -0.008 | [8] -0.029 | [9] 0.018 | [10] 0.078 | [11] 0.034 | [12] -0.1 | [13] -0.02 | [14] -0.036 | [15] 0.059 | [16] 0.014 | [17] -0.027 | [18] 0.016 | [19] -0.046 | [20] 0.084
